# Reference: PMC6400558 (2019)
# Key:
# [1] = target: dynein intermediate chain (DIC) (human (endogenous in HEK293T)); test: co-IP; endogenous proteins; HEK293T lysates in TAP lysis buffer (20 mM Tris-HCl pH 7.4, 150 mM NaCl, 0.5% NP-40) with antibody on protein-A/G beads, 3 h, 4°C; cells asynchronous or synchronized (G2, prometaphase, metaphase/anaphase, cytokinesis), with control or other siRNAs or Hook2 plasmids; immunoblot
# [2] = target: dynein intermediate chain (DIC) (human (endogenous in HEK293T)); test: co-IP; lysates of HEK293T cells transfected with HA-tagged Hook2 (WT, Q143A, I150A; also siRNA-resistant forms in Hook2 siRNA-treated cells); IP with anti-DIC or anti-p150^glued, immunoblot anti-HA
binding [1],binding [2],Binder
binds,–,"Hook2 (endogenous) (protein, UniProt Q96ED9 1-719) MSVDKAELCGSLLTWLQTFHVPSPCASPQDLSSGLAVAYVLNQIDPSWFNEAWLQGISEDPGPNWKLKVSNLKMVLRSLVEYSQDVLAHPVSEEHLPDVSLIGEFSDPAELGKLLQLVLGCAISCEKKQDHIQRIMTLEESVQHVVMEAIQELMTKDTPDSLSPETYGNFDSQSRRYYFLSEEAEEGDELQQRCLDLERQLMLLSEEKQSLAQENAGLRERMGRPEGEGTPGLTAKKLLLLQSQLEQLQEENFRLESGREDERLRCAELEREVAELQHRNQALTSLAQEAQALKDEMDELRQSSERAGQLEATLTSCRRRLGELRELRRQVRQLEERNAGHAERTRQLEDELRRAGSLRAQLEAQRRQVQELQGQRQEEAMKAEKWLFECRNLEEKYESVTKEKERLLAERDSLREANEELRCAQLQPRGLTQADPSLDPTSTPVDNLAAEILPAELRETLLRLQLENKRLCRQEAADRERQEELQRHLEDANRARHGLETQHRLNQQQLSELRAQVEDLQKALQEQGGKTEDAISILLKRKLEEHLQKLHEADLELQRKREYIEELEPPTDSSTARRIEELQHNLQKKDADLRAMEERYRRYVDKARMVMQTMEPKQRPAAGAPPELHSLRTQLRERDVRIRHLEMDFEKSRSQREQEEKLLISAWYNMGMALQQRAGEERAPAHAQSFLAQQRLATNSRRGPLGRLASLNLRPTDKH"
–,no binding,"HA-tagged Hook2 I150A (protein, UniProt Q96ED9 1-719) MSVDKAELCGSLLTWLQTFHVPSPCASPQDLSSGLAVAYVLNQIDPSWFNEAWLQGISEDPGPNWKLKVSNLKMVLRSLVEYSQDVLAHPVSEEHLPDVSLIGEFSDPAELGKLLQLVLGCAISCEKKQDHIQRIMTLEESVQHVVMEAAQELMTKDTPDSLSPETYGNFDSQSRRYYFLSEEAEEGDELQQRCLDLERQLMLLSEEKQSLAQENAGLRERMGRPEGEGTPGLTAKKLLLLQSQLEQLQEENFRLESGREDERLRCAELEREVAELQHRNQALTSLAQEAQALKDEMDELRQSSERAGQLEATLTSCRRRLGELRELRRQVRQLEERNAGHAERTRQLEDELRRAGSLRAQLEAQRRQVQELQGQRQEEAMKAEKWLFECRNLEEKYESVTKEKERLLAERDSLREANEELRCAQLQPRGLTQADPSLDPTSTPVDNLAAEILPAELRETLLRLQLENKRLCRQEAADRERQEELQRHLEDANRARHGLETQHRLNQQQLSELRAQVEDLQKALQEQGGKTEDAISILLKRKLEEHLQKLHEADLELQRKREYIEELEPPTDSSTARRIEELQHNLQKKDADLRAMEERYRRYVDKARMVMQTMEPKQRPAAGAPPELHSLRTQLRERDVRIRHLEMDFEKSRSQREQEEKLLISAWYNMGMALQQRAGEERAPAHAQSFLAQQRLATNSRRGPLGRLASLNLRPTDKH"
–,no binding,"HA-tagged Hook2 Q143A (protein, UniProt Q96ED9 1-719) MSVDKAELCGSLLTWLQTFHVPSPCASPQDLSSGLAVAYVLNQIDPSWFNEAWLQGISEDPGPNWKLKVSNLKMVLRSLVEYSQDVLAHPVSEEHLPDVSLIGEFSDPAELGKLLQLVLGCAISCEKKQDHIQRIMTLEESVAHVVMEAIQELMTKDTPDSLSPETYGNFDSQSRRYYFLSEEAEEGDELQQRCLDLERQLMLLSEEKQSLAQENAGLRERMGRPEGEGTPGLTAKKLLLLQSQLEQLQEENFRLESGREDERLRCAELEREVAELQHRNQALTSLAQEAQALKDEMDELRQSSERAGQLEATLTSCRRRLGELRELRRQVRQLEERNAGHAERTRQLEDELRRAGSLRAQLEAQRRQVQELQGQRQEEAMKAEKWLFECRNLEEKYESVTKEKERLLAERDSLREANEELRCAQLQPRGLTQADPSLDPTSTPVDNLAAEILPAELRETLLRLQLENKRLCRQEAADRERQEELQRHLEDANRARHGLETQHRLNQQQLSELRAQVEDLQKALQEQGGKTEDAISILLKRKLEEHLQKLHEADLELQRKREYIEELEPPTDSSTARRIEELQHNLQKKDADLRAMEERYRRYVDKARMVMQTMEPKQRPAAGAPPELHSLRTQLRERDVRIRHLEMDFEKSRSQREQEEKLLISAWYNMGMALQQRAGEERAPAHAQSFLAQQRLATNSRRGPLGRLASLNLRPTDKH"
–,binds,"HA-tagged Hook2 WT (protein, UniProt Q96ED9 1-719) MSVDKAELCGSLLTWLQTFHVPSPCASPQDLSSGLAVAYVLNQIDPSWFNEAWLQGISEDPGPNWKLKVSNLKMVLRSLVEYSQDVLAHPVSEEHLPDVSLIGEFSDPAELGKLLQLVLGCAISCEKKQDHIQRIMTLEESVQHVVMEAIQELMTKDTPDSLSPETYGNFDSQSRRYYFLSEEAEEGDELQQRCLDLERQLMLLSEEKQSLAQENAGLRERMGRPEGEGTPGLTAKKLLLLQSQLEQLQEENFRLESGREDERLRCAELEREVAELQHRNQALTSLAQEAQALKDEMDELRQSSERAGQLEATLTSCRRRLGELRELRRQVRQLEERNAGHAERTRQLEDELRRAGSLRAQLEAQRRQVQELQGQRQEEAMKAEKWLFECRNLEEKYESVTKEKERLLAERDSLREANEELRCAQLQPRGLTQADPSLDPTSTPVDNLAAEILPAELRETLLRLQLENKRLCRQEAADRERQEELQRHLEDANRARHGLETQHRLNQQQLSELRAQVEDLQKALQEQGGKTEDAISILLKRKLEEHLQKLHEADLELQRKREYIEELEPPTDSSTARRIEELQHNLQKKDADLRAMEERYRRYVDKARMVMQTMEPKQRPAAGAPPELHSLRTQLRERDVRIRHLEMDFEKSRSQREQEEKLLISAWYNMGMALQQRAGEERAPAHAQSFLAQQRLATNSRRGPLGRLASLNLRPTDKH"

# Results are given in words; binding and its absence hold for the method and conditions named. Binding seen in cells or lysates may run through a third protein. Binding can be weak; no strength is given. For some of these results: Tags and fused reporters may be left off the sequences shown.
